# Results taken from the supplement of paper PMC8728848.
# The list shows a part of the results.
# What was measured:
# Test in all cases: glycan array binding signal (z-score within array); higher = stronger binding
# Details in all cases: glycan notation: IUPAC condensed, linker removed
# [1] = target: Gal(a1-3)Gal(b1-4)GlcNAc(b1-2)Man
# Summary of the method: (§1)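 Negative Z-scores can be read as non-binding. The Z-score is calculated within each array and then averaged across arrays of one protein sequence at different concentrations or buffers and across linkers. Arrays, 3228 in all, were curated from the Consortium for Functional Glycomics database and kept only where the protein sequence was available.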
# [2] = target: Gal(a1-3)Gal(b1-4)GlcNAc(b1-2)Man(a1-3)[Gal(a1-3)Gal(b1-4)GlcNAc(b1-2)Man(a1-6)]Man(b1-4)GlcNAc(b1-4)GlcNAc
# Summary of the method: as §1
# [3] = target: Gal(a1-3)Gal(b1-4)GlcNAc(b1-3)GalNAc
# Summary of the method: as §1
# [4] = target: Gal(a1-3)Gal(b1-4)GlcNAc(b1-6)GalNAc
# Summary of the method: as §1
# [5] = target: Gal(a1-3)Gal(b1-4)[Fuc(a1-3)]GlcNAc
# Summary of the method: as §1
# [6] = target: Gal(a1-3)Gal(b1-4)[Fuc(a1-3)]GlcNAc(b1-2)Man(a1-3)[Gal(a1-3)Gal(b1-4)[Fuc(a1-3)]GlcNAc(b1-2)Man(a1-6)]Man(b1-4)GlcNAc(b1-4)GlcNAc
# Summary of the method: as §1
# Gal(a1-3)GalNAc = target: Gal(a1-3)GalNAc
# Summary of the method: as §1
# [7] = target: Gal(a1-3)[Gal(a1-4)]Gal(b1-4)GlcNAc
# Summary of the method: as §1
# [8] = target: Gal(a1-4)Gal(b1-3)GlcNAc(b1-2)Man(a1-3)[Gal(a1-4)Gal(b1-3)GlcNAc(b1-2)Man(a1-6)]Man(b1-4)GlcNAc(b1-4)GlcNAc
# Summary of the method: as §1
# Gal(a1-4)Gal(b1-4)Glc = target: Gal(a1-4)Gal(b1-4)Glc
# Summary of the method: as §1
# Gal(a1-4)Gal(b1-4)GlcNAc = target: Gal(a1-4)Gal(b1-4)GlcNAc
# Summary of the method: as §1
# [9] = target: Gal(a1-4)Gal(b1-4)GlcNAc(b1-2)Man(a1-3)[Gal(a1-4)Gal(b1-4)GlcNAc(b1-2)Man(a1-6)]Man(b1-4)GlcNAc(b1-4)GlcNAc
# Summary of the method: as §1
# [10] = target: Gal(a1-4)Gal(b1-4)GlcNAc(b1-3)Gal(b1-4)Glc
# Summary of the method: as §1
# Gal(a1-4)GlcNAc = target: Gal(a1-4)GlcNAc
# Summary of the method: as §1
# Gal(a1-6)Glc = target: Gal(a1-6)Glc
# Summary of the method: as §1
# Gal(b1-2)Gal = target: Gal(b1-2)Gal
# Summary of the method: as §1
# Gal(b1-3)Gal = target: Gal(b1-3)Gal
# Summary of the method: as §1
# Gal(b1-3)Gal(b1-4)GlcNAc = target: Gal(b1-3)Gal(b1-4)GlcNAc
# Summary of the method: as §1
# Gal(b1-3)GalNAc = target: Gal(b1-3)GalNAc
# Summary of the method: as §1
# [11] = target: Gal(b1-3)GalNAc(a1-3)[Fuc(a1-2)]Gal(b1-4)Glc
# Summary of the method: as §1
# [12] = target: Gal(b1-3)GalNAc(a1-3)[Fuc(a1-2)]Gal(b1-4)GlcNAc
# Summary of the method: as §1
# Gal(b1-3)GalNAc(b1-3)Gal = target: Gal(b1-3)GalNAc(b1-3)Gal
# Summary of the method: as §1
# [13] = target: Gal(b1-3)GalNAc(b1-3)Gal(a1-4)Gal(b1-4)Glc
# Summary of the method: as §1
# [14] = target: Gal(b1-3)GalNAc(b1-4)Gal(b1-4)Glc
# Summary of the method: as §1
# [15] = target: Gal(b1-3)GalNAc(b1-4)[Neu5Ac(a2-3)]Gal(b1-4)Glc
# Summary of the method: as §1
# Gal(b1-3)GlcNAc = target: Gal(b1-3)GlcNAc
# Summary of the method: as §1
# [16] = target: Gal(b1-3)GlcNAc(a1-3)Gal(b1-4)GlcNAc
# Summary of the method: as §1
# [17] = target: Gal(b1-3)GlcNAc(a1-6)Gal(b1-4)GlcNAc
# Summary of the method: as §1
# Gal(b1-3)GlcNAc(b1-2)Man = target: Gal(b1-3)GlcNAc(b1-2)Man
# Summary of the method: as §1
# [18] = target: Gal(b1-3)GlcNAc(b1-2)Man(a1-3)[Gal(b1-3)GlcNAc(b1-2)Man(a1-6)]Man(b1-4)GlcNAc(b1-4)GlcNAc
# Summary of the method: as §1
# [19] = target: Gal(b1-3)GlcNAc(b1-2)Man(a1-3)[Gal(b1-3)GlcNAc(b1-2)Man(a1-6)]Man(b1-4)GlcNAc(b1-4)[Fuc(a1-6)]GlcNAc
# Summary of the method: as §1
# [20] = target: Gal(b1-3)GlcNAc(b1-2)Man(a1-3)[GlcNAc(b1-4)][Gal(b1-3)GlcNAc(b1-2)Man(a1-6)]Man(b1-4)GlcNAc(b1-4)GlcNAc
# Summary of the method: as §1
# [21] = target: Gal(b1-3)GlcNAc(b1-2)[Gal(b1-3)GlcNAc(b1-6)]Man(a1-6)[Gal(b1-3)GlcNAc(b1-2)Man(a1-3)]Man(b1-4)GlcNAc(b1-4)GlcNAc
# Summary of the method: as §1
# [22] = target: Gal(b1-3)GlcNAc(b1-3)Gal(b1-3)GlcNAc
# Summary of the method: as §1
# [23] = target: Gal(b1-3)GlcNAc(b1-3)Gal(b1-4)Glc
# Summary of the method: as §1
# [24] = target: Gal(b1-3)GlcNAc(b1-3)Gal(b1-4)GlcNAc
# Summary of the method: as §1
# [25] = target: Gal(b1-3)GlcNAc(b1-3)Gal(b1-4)GlcNAc(b1-2)Man(a1-3)[Gal(b1-3)GlcNAc(b1-3)Gal(b1-4)GlcNAc(b1-2)Man(a1-6)]Man(b1-4)GlcNAc(b1-4)GlcNAc
# Summary of the method: as §1
binder,measurement,setting,value
Mnn9-2N3 (Aspergillus fumigatus) (protein) MAVARRMRRTNPITLLLAAILAIGFFIFVLSPSTTSASPVKAGSASSSSTSQQRREDNAAENPLSPPTKPFFKSQPVRHDGQQAPPPVVQYNLNQLSSTSTSAANGERILILTPMARFVPEYWDNVVKLTYPHELISIGFIIPKNKEGNAALAALEAAIAKTQSGPIDKRFASISILRQDFEPPLQSQDEKERHKISNQKARRESMSRARNSLLFTTLGPATAWVLWLDADIVETPPTLIQDLTAHDHPVLVPNCYQRYYNSEKKKMDVRPYDYNSWIDSSTAQSMAAEMGPDEILLEGYAEMPTYRTLMAHLADTANPNPKKVIELDGVGGTALMVKAEVHRDGAMFPAFPFYHLVETEGFAKMAKRLGYSVYGLPDYFVSRNFFFFFFFFFFG,glycan array binding signal (z-score),[1],0.956
same,glycan array binding signal (z-score),[2],0.22
same,glycan array binding signal (z-score),[3],-0.252
same,glycan array binding signal (z-score),[4],1.17
same,glycan array binding signal (z-score),[5],0.295
same,glycan array binding signal (z-score),[6],2.41
same,glycan array binding signal (z-score),Gal(a1-3)GalNAc,1.16
same,glycan array binding signal (z-score),[7],-0.015
same,glycan array binding signal (z-score),[8],-0.626
same,glycan array binding signal (z-score),Gal(a1-4)Gal(b1-4)Glc,-0.443
same,glycan array binding signal (z-score),Gal(a1-4)Gal(b1-4)GlcNAc,-0.114
same,glycan array binding signal (z-score),[9],0.199
same,glycan array binding signal (z-score),[10],-2.17
same,glycan array binding signal (z-score),Gal(a1-4)GlcNAc,2.75
same,glycan array binding signal (z-score),Gal(a1-6)Glc,2.31
same,glycan array binding signal (z-score),Gal(b1-2)Gal,1.83
same,glycan array binding signal (z-score),Gal(b1-3)Gal,2.22
same,glycan array binding signal (z-score),Gal(b1-3)Gal(b1-4)GlcNAc,-0.267
same,glycan array binding signal (z-score),Gal(b1-3)GalNAc,-0.491
same,glycan array binding signal (z-score),[11],-0.308
same,glycan array binding signal (z-score),[12],-0.28
same,glycan array binding signal (z-score),Gal(b1-3)GalNAc(b1-3)Gal,-0.049
same,glycan array binding signal (z-score),[13],-1.83
same,glycan array binding signal (z-score),[14],-1.14
same,glycan array binding signal (z-score),[15],0.109
same,glycan array binding signal (z-score),Gal(b1-3)GlcNAc,0.408
same,glycan array binding signal (z-score),[16],-0.844
same,glycan array binding signal (z-score),[17],-0.013
same,glycan array binding signal (z-score),Gal(b1-3)GlcNAc(b1-2)Man,-0.115
same,glycan array binding signal (z-score),[18],-0.154
same,glycan array binding signal (z-score),[19],-0.497
same,glycan array binding signal (z-score),[20],0.004
same,glycan array binding signal (z-score),[21],-0.176
same,glycan array binding signal (z-score),[22],-0.486
same,glycan array binding signal (z-score),[23],1.12
same,glycan array binding signal (z-score),[24],2.26
same,glycan array binding signal (z-score),[25],2.02

# Part of the list above, bar-delimited:
binder | measurement | setting | value
Mnn9-2N3 (Aspergillus fumigatus) (protein) MAVARRMRRTNPITLLLAAILAIGFFIFVLSPSTTSASPVKAGSASSSSTSQQRREDNAAENPLSPPTKPFFKSQPVRHDGQQAPPPVVQYNLNQLSSTSTSAANGERILILTPMARFVPEYWDNVVKLTYPHELISIGFIIPKNKEGNAALAALEAAIAKTQSGPIDKRFASISILRQDFEPPLQSQDEKERHKISNQKARRESMSRARNSLLFTTLGPATAWVLWLDADIVETPPTLIQDLTAHDHPVLVPNCYQRYYNSEKKKMDVRPYDYNSWIDSSTAQSMAAEMGPDEILLEGYAEMPTYRTLMAHLADTANPNPKKVIELDGVGGTALMVKAEVHRDGAMFPAFPFYHLVETEGFAKMAKRLGYSVYGLPDYFVSRNFFFFFFFFFFG | glycan array binding signal (z-score) | [2] | 0.22
same | glycan array binding signal (z-score) | [5] | 0.295
same | glycan array binding signal (z-score) | Gal(a1-4)Gal(b1-4)Glc | -0.443
